The results in this text go back to doi:10.1101/495432.

Holding throughout (test): co-IP
Assay [1] addresses T1, Halo-ΔRBR CTCF (mESC clone C59D2 ΔRBR) (mouse) (UniProt Q61164).
T1 sequence: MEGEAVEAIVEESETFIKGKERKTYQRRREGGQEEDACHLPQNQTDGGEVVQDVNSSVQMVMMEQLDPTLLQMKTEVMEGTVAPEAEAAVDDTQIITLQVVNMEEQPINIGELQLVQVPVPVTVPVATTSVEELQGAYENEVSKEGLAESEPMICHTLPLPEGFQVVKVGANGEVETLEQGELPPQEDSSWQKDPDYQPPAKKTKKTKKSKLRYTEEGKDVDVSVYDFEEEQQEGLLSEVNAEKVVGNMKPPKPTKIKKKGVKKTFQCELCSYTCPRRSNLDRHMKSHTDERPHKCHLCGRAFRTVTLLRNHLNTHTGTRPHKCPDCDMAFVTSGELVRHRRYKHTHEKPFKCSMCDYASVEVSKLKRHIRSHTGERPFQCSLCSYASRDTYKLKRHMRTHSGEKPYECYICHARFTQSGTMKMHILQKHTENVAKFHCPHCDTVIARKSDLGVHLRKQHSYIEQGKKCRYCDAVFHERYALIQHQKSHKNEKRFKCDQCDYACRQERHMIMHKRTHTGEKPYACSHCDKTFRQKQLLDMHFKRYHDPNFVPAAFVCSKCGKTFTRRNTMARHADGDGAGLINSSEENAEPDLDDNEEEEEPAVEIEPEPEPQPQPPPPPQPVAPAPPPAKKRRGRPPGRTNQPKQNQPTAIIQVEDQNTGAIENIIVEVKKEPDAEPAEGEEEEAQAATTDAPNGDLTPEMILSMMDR

Assay [2] addresses T2, Halo-wt CTCF (mESC clone C59) (mouse) (UniProt Q61164).
T2 sequence: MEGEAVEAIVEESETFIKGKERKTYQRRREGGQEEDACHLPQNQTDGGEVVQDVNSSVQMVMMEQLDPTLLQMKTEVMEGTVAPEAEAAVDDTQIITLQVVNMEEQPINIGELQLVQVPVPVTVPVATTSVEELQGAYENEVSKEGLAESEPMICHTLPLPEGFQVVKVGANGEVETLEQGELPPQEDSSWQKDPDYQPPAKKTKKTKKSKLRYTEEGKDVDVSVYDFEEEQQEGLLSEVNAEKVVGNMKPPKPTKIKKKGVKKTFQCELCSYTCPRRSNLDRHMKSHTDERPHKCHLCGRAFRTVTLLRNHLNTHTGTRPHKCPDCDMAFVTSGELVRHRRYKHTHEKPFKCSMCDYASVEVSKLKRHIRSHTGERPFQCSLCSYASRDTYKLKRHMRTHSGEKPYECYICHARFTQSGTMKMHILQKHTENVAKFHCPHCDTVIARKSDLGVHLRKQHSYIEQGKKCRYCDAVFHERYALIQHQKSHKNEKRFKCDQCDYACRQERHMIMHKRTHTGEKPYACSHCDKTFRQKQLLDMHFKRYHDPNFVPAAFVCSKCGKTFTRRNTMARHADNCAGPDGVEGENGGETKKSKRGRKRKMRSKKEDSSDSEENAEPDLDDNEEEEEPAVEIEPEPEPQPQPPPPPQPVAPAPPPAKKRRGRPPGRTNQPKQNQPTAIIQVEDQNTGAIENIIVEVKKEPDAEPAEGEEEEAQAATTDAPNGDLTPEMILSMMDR

Assay [3] concerns the target T3, CTCF, endogenously dual-tagged in mESC clone C62 (one allele 3xFLAG-Halo-CTCF, the other allele V5-SNAPf-CTCF) (mouse), Q61164.
T3 chain: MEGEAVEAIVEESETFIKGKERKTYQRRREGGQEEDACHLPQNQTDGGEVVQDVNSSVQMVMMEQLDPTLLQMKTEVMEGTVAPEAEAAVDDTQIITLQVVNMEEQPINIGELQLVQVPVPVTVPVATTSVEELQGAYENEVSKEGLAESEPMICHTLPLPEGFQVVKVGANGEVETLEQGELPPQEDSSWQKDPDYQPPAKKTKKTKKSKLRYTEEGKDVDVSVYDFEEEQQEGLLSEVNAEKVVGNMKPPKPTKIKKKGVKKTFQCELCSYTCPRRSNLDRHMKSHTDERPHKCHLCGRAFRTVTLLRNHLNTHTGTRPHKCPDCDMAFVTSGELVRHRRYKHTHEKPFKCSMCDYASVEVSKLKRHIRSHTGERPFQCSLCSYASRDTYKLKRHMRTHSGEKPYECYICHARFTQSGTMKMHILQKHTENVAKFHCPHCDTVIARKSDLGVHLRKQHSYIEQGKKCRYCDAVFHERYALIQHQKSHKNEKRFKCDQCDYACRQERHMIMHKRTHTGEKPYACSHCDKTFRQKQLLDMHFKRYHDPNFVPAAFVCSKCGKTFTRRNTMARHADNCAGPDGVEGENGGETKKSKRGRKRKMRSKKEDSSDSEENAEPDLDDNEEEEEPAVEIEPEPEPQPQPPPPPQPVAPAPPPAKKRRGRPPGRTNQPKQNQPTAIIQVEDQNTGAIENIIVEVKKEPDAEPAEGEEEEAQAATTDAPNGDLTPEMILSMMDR
The note with it: remark: other sources report otherwise.

No constants are given. Whether binding was seen depends on the method and setting. In cells and extracts the contact can be indirect. Some binding calls cover weakened binding; strength is not graded here. For some assays here: Sequences can lack the tags named with a protein.

B1: Smc1a (cohesin subunit) (protein, UniProt Q9CU62 1-1233)
chain: MGFLKLIEIENFKSYKGRQIIGPFQRFTAIIGPNGSGKSNLMDAISFVLGEKTSNLRVKTLRDLIHGAPVGKPAANRAFVSMVYSEEGAEDRTFARVIVGGSSEYKINNKVVQLHEYSEELEKLGILIKARNFLVFQGAVESIAMKNPKERTALFEEISRSGELAQEYDKRKKEMVKAEEDTQFNYHRKKNIAAERKEAKQEKEEADRYQRLKDEVVRAQVQLQLFKLYHNEVEIEKLNKELASKNKEIEKDKKRMDKVEDELKEKKKELGKMMREQQQIEKEIKEKDSELNQKRPQYIKAKENTSHKIKKLEAAKKSLQNAQKHYKKRKGDMDELEKEMLSVEKARQEFEERMEEESQSQGRDLTLEENQVKKYHRLKEEASKRAATLAQELEKFNRDQKADQDRLDLEERKKVETEAKIKQKLREIEENQKRIEKLEEYITTSKQSLEEQKKLEGELTEEVEMAKRRIDEINKELNQVMEQLGDARIDRQESSRQQRKAEIMESIKRLYPGSVYGRLIDLCQPTQKKYQIAVTKVLGKNMDAIIVDSEKTGRDCIQYIKEQRGEPETFLPLDYLEVKPTDEKLRELKGAKLVIDVIRYEPPHIKKALQYACGNALVCDNVEDARRIAFGGHQRHKTVALDGTLFQKSGVISGGASDLKAKARRWDEKAVDKLKEKKERLTEELKEQMKAKRKEAELRQVQSQAHGLQMRLKYSQSDLEQTKTRHLALNLQEKSKLESELANFGPRINDIKRIIQSREREMKDLKEKMNQVEDEVFEEFCREIGVRNIREFEEEKVKRQNEIAKKRLEFENQKTRLGIQLDFEKNQLKEDQDKVHMWEQTVKKDENEIEKLKKEEQRHMKIIDETMAQLQDLKNQHLAKKSEVNDKNHEMEEIRKKLGGANKEMTHLQKEVTAIETKLEQKRSDRHNLLQACKMQDIKLPLSKGTMDDISQEEGSSQGEESVSGSQRTSSIYAREALIEIDYGDLCEDLKDAQAEEEIKQEMNTLQQKLNEQQSVLQRIAAPNMKAMEKLESVRDKFQETSDEFEAARKRAKKAKQAFEQIKKERFDRFNACFESVATNIDEIYKALSRNSSAQAFLGPENPEEPYLDGINYNCVAPGKRFRPMDNLSGGEKTVAALALLFAIHSYKPAPFFVLDEIDAALDNTNIGKVANYIKEQSTCNFQAIVISLKEEFYTKAESLIGVYPEQGDCVISKVLTFDLTKYPDANPNPNEQ
For the molecule B1, the binding entry in assay [1] and in assay [2] was “binds” in each case.

B2: CTCF, endogenously dual-tagged in mESC clone C62 (one allele 3xFLAG-Halo-CTCF, the other allele V5-SNAPf-CTCF), Q61164 1-736 (protein)
chain: MEGEAVEAIVEESETFIKGKERKTYQRRREGGQEEDACHLPQNQTDGGEVVQDVNSSVQMVMMEQLDPTLLQMKTEVMEGTVAPEAEAAVDDTQIITLQVVNMEEQPINIGELQLVQVPVPVTVPVATTSVEELQGAYENEVSKEGLAESEPMICHTLPLPEGFQVVKVGANGEVETLEQGELPPQEDSSWQKDPDYQPPAKKTKKTKKSKLRYTEEGKDVDVSVYDFEEEQQEGLLSEVNAEKVVGNMKPPKPTKIKKKGVKKTFQCELCSYTCPRRSNLDRHMKSHTDERPHKCHLCGRAFRTVTLLRNHLNTHTGTRPHKCPDCDMAFVTSGELVRHRRYKHTHEKPFKCSMCDYASVEVSKLKRHIRSHTGERPFQCSLCSYASRDTYKLKRHMRTHSGEKPYECYICHARFTQSGTMKMHILQKHTENVAKFHCPHCDTVIARKSDLGVHLRKQHSYIEQGKKCRYCDAVFHERYALIQHQKSHKNEKRFKCDQCDYACRQERHMIMHKRTHTGEKPYACSHCDKTFRQKQLLDMHFKRYHDPNFVPAAFVCSKCGKTFTRRNTMARHADNCAGPDGVEGENGGETKKSKRGRKRKMRSKKEDSSDSEENAEPDLDDNEEEEEPAVEIEPEPEPQPQPPPPPQPVAPAPPPAKKRRGRPPGRTNQPKQNQPTAIIQVEDQNTGAIENIIVEVKKEPDAEPAEGEEEEAQAATTDAPNGDLTPEMILSMMDR
For the molecule B2, the binding result in assay [3] is “binds”.

B3: Rad21 (cohesin subunit) (protein, UniProt Q61550)
chain: MFYAHFVLSKRGPLAKIWLAAHWDKKLTKAHVFECNLESSVESIISPKVKMALRTSGHLLLGVVRIYHRKAKYLLADCNEAFIKIKMAFRPGVVDLPEENREAAYNAITLPEEFHDFDQPLPDLDDIDVAQQFSLNQSRVEEITMREEVGNISILQENDFGDFGMDDREIMREGSAFEDDDMLVSTSASNLLLEPEQSTSNLNEKMNHLEYEDQYKDDNFGEGNDGGILDDKLISNNDGGIFDDPPALSEAGVMLPEQPAHDDMDEDDNGSLGGPDSPDSVDPVEPMPTMTDQTTLVPNEEEAFALEPIDITVKETKAKRKRKLIVDSVKELDSKTIRAQLSDYSDIVTTLDLAPPTKKLMMWKETGGVEKLFFLPAQPLWNNRLLKLFTRCLTPLVPEDLRKRRKGGEADNLDEFLKEFENPEVPREEQQPQQQQPQPQRDVIDEPIIEEPSRLQDSVMEASRTTIEESAMPPPPPQGVKRKAGQIDPEPSIPPQQVEQMEIPPVELPPEEPPNICQLIPELELLPEKEKEKEKEKEEEEEEEDEDASGGDQDQEERRWNKRTQQMLHGLQRALAKTGAESISLLELCRNTNRKQAAAKFYSFLVLKKQQAIELTQEEPYSDIIATPGPRFHII
With B3, the binding entry in assay [1] and in assay [2] was “binds” each time.
